Assay results from PubChem BioAssay AID445 (National Center for Advancing Translational Sciences (NCATS), 2006).
The other results are listed elsewhere or left out. The main result of the screen is listed elsewhere. These columns were measured beside it and carry no call. Most of these compounds were active or inconclusive in the main read-out, so they are no random draw. Words in brackets tell the shape of the fitted curve; partial curves, single points and poor fits give uncertain potencies.

Experiment: IkB Signaling
Settings: ABC-DLBCL IkBa-CBG/CBR dual luciferase ratio (green luciferase fused to IkBa over red control in OCI-Ly3 lymphoma cells), 4 h; measured here: control luc red channel unless noted
How it was run: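 Curves were fitted separately to fusion (green), unfused (red) and ratio luminescence, then classed by r2, magnitude and activity. Cells: OCI-Ly3, 4 h compound plus doxycycline at 37C; 10 uM MG-132 defined full response.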

| Compound | AC50 |
| --- | --- |
| COc1cc2[nH]c(=O)n(CCCC(=O)NCc3ccc(Cl)cc3)c(=O)c2cc1OC | 25.1 µM [falling, partial curve, poor fit] |
| CCc1ccccc1Nc1nn2c(=O)c3ccc(C(=O)NC(C)c4ccccc4)cc3nc2s1 (configuration not stated) | 15.8 µM [falling, partial curve] |
| CN(C)/C=N/c1c(C#N)cnn1-c1ncnc2sc(-c3ccccc3)cc12 | 12.6 µM [falling, partial curve] |
| O=C(CN1CCCN(S(=O)(=O)c2ccc(Br)cc2)CC1)Nc1ccc2cn[nH]c2c1 | 12.6 µM [falling, partial curve] |
| CCOc1cc2[nH]c(=O)n(CCCCC(=O)N3CCN(c4cccc(Cl)c4)CC3)c(=O)c2cc1OCC | 39.8 µM [falling, single point] |
| Cc1cccc2sc(N(Cc3cccnc3)C(=O)c3cccs3)nc12 | 39.8 µM [falling, partial curve] |
| CCc1ccc(CN2CCc3nc(Nc4ccccc4)ncc3C2)cc1 | 20 µM [falling, single point] |
| c1ccc(Cc2nnc3sc(-c4ccc5c(c4)OCCO5)nn23)cc1 | 31.6 µM [falling, single point] |
| CCOC(=O)c1cc(-c2ccccc2)n(CCCC(=O)Nc2cccc(C)c2C)c1C | 5.01 µM [rising, partial curve] |
| Cc1nc(-n2nnc3ccccc32)c2c3c(sc2n1)CCCC3 | 39.8 µM [falling, single point] |
| CCOc1ccc(CNC(=O)c2cccc(NC(=O)N3CCSc4ncccc43)c2)cc1 | 15.8 µM [falling, partial curve] |
| CCn1c(C(=O)N2CCC(C(=O)N3CCN(c4cc(C)ccc4C)CC3)CC2)cc2sccc21 | 25.1 µM [falling, partial curve] |
| COc1ccc(CNC(=O)c2ccc3nc(CCc4ccccc4)oc3c2)cc1OC | 2.51 µM [rising, partial curve] |
| CC(=O)N1CCc2cc(S(=O)(=O)NC(CC(C)C)C(=O)Nc3ccc(C(C)C)cc3)ccc21 (configuration not stated) | 31.6 µM [falling, single point] |
| CCOC(=O)c1c(C)sc(-c2c(-c3ccc4c(c3)OCCO4)[nH]c3c2c(=O)n(C)c(=O)n3C)c1O | 12.6 µM [falling, partial curve] |
| COc1ccc(C(=O)CSc2nnc(CNc3nc(-c4ccccc4)cs3)n2C)cc1 | 10 µM [falling, partial curve] |
| CCCNC(=O)c1cnn2c(C)c(Cc3c(C)cc(C)cc3C)c(C)nc12 | 10 µM [falling, partial curve] |

An excerpt from above in order of molecular weight, smallest number first:

| Compound | AC50 |
| --- | --- |
| Cc1nc(-n2nnc3ccccc32)c2c3c(sc2n1)CCCC3 | 39.8 µM [falling, single point] |
| CCOc1ccc(CNC(=O)c2cccc(NC(=O)N3CCSc4ncccc43)c2)cc1 | 15.8 µM [falling, partial curve] |
| O=C(CN1CCCN(S(=O)(=O)c2ccc(Br)cc2)CC1)Nc1ccc2cn[nH]c2c1 | 12.6 µM [falling, partial curve] |
